In patent publication US9072728B2, “Treatment of severe distal colitis” (priority 2003, dated 2015):
At least one structure is not confirmed: it was looked up by name or label, or the drawing left a doubt.

Test system: IL-8 within Calu-3 cells
Test: IL-8 in Calu-3 cell lysates (ELISA)
Format: cell-based
Conditions: Salmonella stimulation, 30 μM test compound, 5 hours; FIG. 5

SMILES: CCC(C)n1ncn(-c2ccc(N3CCN(c4ccc(OCC5COC(Cn6cncn6)(c6ccc(Cl)cc6Cl)O5)cc4)CC3)cc2)c1=O (stereo not shown) [itraconazole]
- decrease in IL-8 in Calu-3 cell lysates: slight inhibition
